Data as given in patent US6887869B2, “Mikanolide derivatives, their preparation and therapeutic uses” (Societe de Conseils de Recherches et d'Applications …, priority 2001, dated 2005).
Some of these results come from one statement about several compounds together. At least one compound was matched to its structure with a doubt left.

Columns and labels:
[1] = tested on: Mia-PaCa2 (human pancreatic cancer cells); test: Measurement of cell proliferation (WST1), Mia-PaCa2; type: cell-based; details: Mia-Paca2, 96 hours treatment; read-out: IC50 inhibitory concentration, proliferation of Mia-Paca2 cell lines
Protocol: (§1) DU-145 (human prostate cancer cells), HT29 (cancer of the colon) and Mia-PaCa2 (human pancreatic cancer cells) were acquired from the American Tissue Culture Collection (Rockville, Md., USA).
(§2) Measurement of Cell Proliferation
(§3) The cells placed in 80 μl of Dulbecco's modified Eagle medium (Gibco-BRL, Cergy-Pontoise, France) completed with 10% of foetal calf serum inactivated by heating (Gibco-BRL, Cergy-Pontoise, France), 50000 units/l of penicillin and 50 mg/l streptomycin (Gibco-BRL, Cergy-Pontoise, France), and 2 mM of glutamine (Gibco-BRL, Cergy-Pontoise, France) were seeded on a 96-well plate on day 0. The cells were treated on day 1 for 96 hours with increasing concentrations of each of the compounds to be tested. At the end of the of this period, quantification of the cell proliferation is evaluated by a calorimetric test based on the cleavage of the tetrazolium salt WST1 by mitochondrial dehydrogenases in viable cells leading to the formation of formazan (Boehringer Mannheim, Meylan, France). These tests are carried out in duplicate with 8 determinations per concentration tested. The products are solubilised in dimethylsulphoxide (DMSO) at 10^−2 M and finally used in culture with 0.5% DMSO.

[2] = tested on: DU-145 (human prostate cancer cells); test: Measurement of cell proliferation (WST1), DU-145; type: cell-based; details: DU-145, 96 hours treatment; read-out: IC50 inhibitory concentration, proliferation of DU-145 cell lines
Protocol: as §1, §2, §3

Molecule: 11-hydroxy-3,8-dimethyl-4,14-dioxo-5,9,15-trioxatetracyclo[11.2.1.0^2,6.0^8,10]hexadec-13(16)-ene-12-yl(dimethyl)ammonium maleate [Example 6]
- IC50 [1]: ≤ 30 µM

Molecule: CC(C)N(CC1C(=O)OC2CC3(C)OC3C3OC3C3=CC(OC3=O)C21)C(C)C (stereo not shown) [Example 1, 12-diisopropylaminomethyl-7-methyl-3.6,10,15-tetraoxapentacyclo[12.2.1.0^2,4.0^5,7.0^9,13]heptadec-1(17)-ene-11,16-dione]
- IC50 [2]: ≤ 30 µM
- IC50 [1]: ≤ 30 µM

Molecule: 11-hydroxy-3,8-dimethyl-4,14-dioxo-5,9,15-trioxatetracyclo[11.2.1.0^2,6.0^8,10]hexadec-13(16)-ene-12-yl(dimethyl)ammonium fumarate [Example 7]
- IC50 [1]: ≤ 30 µM
